Measured values: doi:10.1101/2023.04.25.538284 (bioRxiv, 2023)
These are yes or no findings as the source states them, for the method shown. Binding seen in cells or lysates may run through a third protein. Some entries that bind do so weakly or less than the wild type. Sequences can lack the tags named with a protein.

Columns and labels:
Test in all cases: split reporter
[1] = biological target: T1, SnRK2.9-nLUC (Arabidopsis thaliana) (UniProt O64812)
T1 sequence: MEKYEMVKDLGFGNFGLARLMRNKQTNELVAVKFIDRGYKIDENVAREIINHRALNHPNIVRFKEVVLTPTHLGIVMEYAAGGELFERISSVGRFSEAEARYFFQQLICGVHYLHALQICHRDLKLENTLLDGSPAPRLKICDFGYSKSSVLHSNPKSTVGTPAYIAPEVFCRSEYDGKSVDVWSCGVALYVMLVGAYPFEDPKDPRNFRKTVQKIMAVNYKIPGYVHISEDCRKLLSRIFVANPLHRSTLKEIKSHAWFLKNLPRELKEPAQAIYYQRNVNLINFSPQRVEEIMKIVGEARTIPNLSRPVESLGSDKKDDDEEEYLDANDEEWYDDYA

[2] = biological target: T2, SnRK2.5-nLUC (Arabidopsis thaliana) (UniProt Q9FFP9)
T2 sequence: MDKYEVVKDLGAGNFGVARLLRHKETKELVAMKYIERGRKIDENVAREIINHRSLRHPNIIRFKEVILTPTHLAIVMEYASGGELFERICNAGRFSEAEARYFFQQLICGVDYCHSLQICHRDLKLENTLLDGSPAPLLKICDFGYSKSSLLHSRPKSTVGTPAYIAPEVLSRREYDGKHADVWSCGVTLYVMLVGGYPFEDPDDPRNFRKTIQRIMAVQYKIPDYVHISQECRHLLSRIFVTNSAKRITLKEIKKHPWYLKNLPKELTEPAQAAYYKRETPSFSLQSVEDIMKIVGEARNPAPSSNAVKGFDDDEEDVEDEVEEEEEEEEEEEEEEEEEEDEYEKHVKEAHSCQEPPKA

[3] = biological target: T3, SnRK2.1-nLUC (Arabidopsis thaliana) (UniProt P43292)
T3 sequence: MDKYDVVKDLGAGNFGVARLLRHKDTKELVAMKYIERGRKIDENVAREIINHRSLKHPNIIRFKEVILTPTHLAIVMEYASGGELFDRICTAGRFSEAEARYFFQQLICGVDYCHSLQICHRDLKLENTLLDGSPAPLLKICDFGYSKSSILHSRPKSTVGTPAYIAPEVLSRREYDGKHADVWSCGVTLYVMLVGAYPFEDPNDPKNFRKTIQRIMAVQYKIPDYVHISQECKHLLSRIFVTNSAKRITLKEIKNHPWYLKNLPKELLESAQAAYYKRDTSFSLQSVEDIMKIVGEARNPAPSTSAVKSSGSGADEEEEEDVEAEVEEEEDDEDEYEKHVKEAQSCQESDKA

[4] = biological target: T4, SnRK2.2-nLUC (Arabidopsis thaliana) (UniProt Q39192)
T4 sequence: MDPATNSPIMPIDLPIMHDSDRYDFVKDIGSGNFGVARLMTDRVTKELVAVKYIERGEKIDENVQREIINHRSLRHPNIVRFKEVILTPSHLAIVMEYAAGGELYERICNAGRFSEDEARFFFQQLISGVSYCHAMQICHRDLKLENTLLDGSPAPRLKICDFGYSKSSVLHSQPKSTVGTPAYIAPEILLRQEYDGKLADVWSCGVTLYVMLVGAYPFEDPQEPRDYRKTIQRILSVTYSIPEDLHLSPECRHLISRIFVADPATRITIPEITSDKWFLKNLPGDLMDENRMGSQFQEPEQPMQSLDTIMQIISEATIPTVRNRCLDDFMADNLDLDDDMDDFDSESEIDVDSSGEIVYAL

binding [1]: binds weakly
binding [2]: no binding
binding [3]: binds weakly
binding [4]: binds weakly
B1: SIZ1-cLUC (enzyme, UniProt Q680Q4-3 1-873)
chain: MDLEANCKEKLSYFRIKELKDVLTQLGLSKQGKKQELVDRILTLLSDEQAARLLSKKNTVAKEAVAKLVDDTYRKMQVSGASDLASKGQVSSDTSNLKVKGEPEDPFQPEIKVRCVCGNSLETDSMIQCEDPRCHVWQHVGCVILPDKPMDGNPPLPESFYCEICRLTRADPFWVTVAHPLSPVRLTATTIPNDGASTMQSVERTFQITRADKDLLAKPEYDVQAWCMLLNDKVLFRMQWPQYADLQVNGVPVRAINRPGGQLLGVNGRDDGPIITSCIRDGVNRISLSGGDVRIFCFGVRLVKRRTLQQVLNLIPEEGKGETFEDALARVRRCIGGGGGDDNADSDSDIEVVADFFGVNLRCPMSGSRIKVAGRFLPCVHMGCFDLDVFVELNQRSRKWQCPICLKNYSVEHVIVDPYFNRITSKMKHCDEEVTEIEVKPDGSWRVKFKRESERRELGELSQWHAPDGSLCPSAVDIKRKMEMLPVKQEGYSDGPAPLKLGIRKNRNGIWEVSKPNTNGLSSSNRQEKVGYQEKNIIPMSSSATGSGRDGDDASVNQDAIGTFDFVANGMELDSISMNVDSGYNFPDRNQSGEGGNNEVIVLSDSDDENDLVITPGPAYSGCQTDGGLTFPLNPPGIINSYNEDPHSIAGGSSGLGLFNDDDEFDTPLWSFPSETPEAPGFQLFRSDADVSGGLVGLHHHSPLNCSPEINGGYTMAPETSMASVPVVPGSTGRSEANDGLVDNPLAFGRDDPSLQIFLPTKPDASAQSGFKNQADMSNGLRSEDWISLRLGDSASGNHGDPATTNGINSSHQMSTREGSMDTTTETASLLLGMNDSRQDKAKKQRSDNPFSFPRQKRSVRPRMYLSIDSDSE
